# Article PMC6486480
# Chains of the proteins cited; added tags and fusions are not shown.
# UniProt Q08642: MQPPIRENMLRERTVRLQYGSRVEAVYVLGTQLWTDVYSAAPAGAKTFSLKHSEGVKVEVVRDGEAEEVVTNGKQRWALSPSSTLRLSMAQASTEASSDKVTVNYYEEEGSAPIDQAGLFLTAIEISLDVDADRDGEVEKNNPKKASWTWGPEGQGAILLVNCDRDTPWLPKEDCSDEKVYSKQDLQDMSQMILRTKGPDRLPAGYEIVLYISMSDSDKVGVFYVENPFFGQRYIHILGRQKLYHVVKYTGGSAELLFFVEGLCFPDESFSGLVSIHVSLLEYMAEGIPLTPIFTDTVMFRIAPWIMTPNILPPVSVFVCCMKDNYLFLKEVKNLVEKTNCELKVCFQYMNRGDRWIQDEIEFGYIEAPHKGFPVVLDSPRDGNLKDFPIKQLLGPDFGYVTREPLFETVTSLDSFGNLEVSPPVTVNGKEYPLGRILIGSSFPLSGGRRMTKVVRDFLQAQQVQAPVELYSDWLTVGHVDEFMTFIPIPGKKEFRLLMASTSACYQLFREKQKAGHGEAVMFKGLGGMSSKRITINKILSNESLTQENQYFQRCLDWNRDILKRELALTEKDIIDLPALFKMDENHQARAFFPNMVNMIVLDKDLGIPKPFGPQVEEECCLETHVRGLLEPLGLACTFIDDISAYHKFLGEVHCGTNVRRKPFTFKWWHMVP
# UniProt P19096: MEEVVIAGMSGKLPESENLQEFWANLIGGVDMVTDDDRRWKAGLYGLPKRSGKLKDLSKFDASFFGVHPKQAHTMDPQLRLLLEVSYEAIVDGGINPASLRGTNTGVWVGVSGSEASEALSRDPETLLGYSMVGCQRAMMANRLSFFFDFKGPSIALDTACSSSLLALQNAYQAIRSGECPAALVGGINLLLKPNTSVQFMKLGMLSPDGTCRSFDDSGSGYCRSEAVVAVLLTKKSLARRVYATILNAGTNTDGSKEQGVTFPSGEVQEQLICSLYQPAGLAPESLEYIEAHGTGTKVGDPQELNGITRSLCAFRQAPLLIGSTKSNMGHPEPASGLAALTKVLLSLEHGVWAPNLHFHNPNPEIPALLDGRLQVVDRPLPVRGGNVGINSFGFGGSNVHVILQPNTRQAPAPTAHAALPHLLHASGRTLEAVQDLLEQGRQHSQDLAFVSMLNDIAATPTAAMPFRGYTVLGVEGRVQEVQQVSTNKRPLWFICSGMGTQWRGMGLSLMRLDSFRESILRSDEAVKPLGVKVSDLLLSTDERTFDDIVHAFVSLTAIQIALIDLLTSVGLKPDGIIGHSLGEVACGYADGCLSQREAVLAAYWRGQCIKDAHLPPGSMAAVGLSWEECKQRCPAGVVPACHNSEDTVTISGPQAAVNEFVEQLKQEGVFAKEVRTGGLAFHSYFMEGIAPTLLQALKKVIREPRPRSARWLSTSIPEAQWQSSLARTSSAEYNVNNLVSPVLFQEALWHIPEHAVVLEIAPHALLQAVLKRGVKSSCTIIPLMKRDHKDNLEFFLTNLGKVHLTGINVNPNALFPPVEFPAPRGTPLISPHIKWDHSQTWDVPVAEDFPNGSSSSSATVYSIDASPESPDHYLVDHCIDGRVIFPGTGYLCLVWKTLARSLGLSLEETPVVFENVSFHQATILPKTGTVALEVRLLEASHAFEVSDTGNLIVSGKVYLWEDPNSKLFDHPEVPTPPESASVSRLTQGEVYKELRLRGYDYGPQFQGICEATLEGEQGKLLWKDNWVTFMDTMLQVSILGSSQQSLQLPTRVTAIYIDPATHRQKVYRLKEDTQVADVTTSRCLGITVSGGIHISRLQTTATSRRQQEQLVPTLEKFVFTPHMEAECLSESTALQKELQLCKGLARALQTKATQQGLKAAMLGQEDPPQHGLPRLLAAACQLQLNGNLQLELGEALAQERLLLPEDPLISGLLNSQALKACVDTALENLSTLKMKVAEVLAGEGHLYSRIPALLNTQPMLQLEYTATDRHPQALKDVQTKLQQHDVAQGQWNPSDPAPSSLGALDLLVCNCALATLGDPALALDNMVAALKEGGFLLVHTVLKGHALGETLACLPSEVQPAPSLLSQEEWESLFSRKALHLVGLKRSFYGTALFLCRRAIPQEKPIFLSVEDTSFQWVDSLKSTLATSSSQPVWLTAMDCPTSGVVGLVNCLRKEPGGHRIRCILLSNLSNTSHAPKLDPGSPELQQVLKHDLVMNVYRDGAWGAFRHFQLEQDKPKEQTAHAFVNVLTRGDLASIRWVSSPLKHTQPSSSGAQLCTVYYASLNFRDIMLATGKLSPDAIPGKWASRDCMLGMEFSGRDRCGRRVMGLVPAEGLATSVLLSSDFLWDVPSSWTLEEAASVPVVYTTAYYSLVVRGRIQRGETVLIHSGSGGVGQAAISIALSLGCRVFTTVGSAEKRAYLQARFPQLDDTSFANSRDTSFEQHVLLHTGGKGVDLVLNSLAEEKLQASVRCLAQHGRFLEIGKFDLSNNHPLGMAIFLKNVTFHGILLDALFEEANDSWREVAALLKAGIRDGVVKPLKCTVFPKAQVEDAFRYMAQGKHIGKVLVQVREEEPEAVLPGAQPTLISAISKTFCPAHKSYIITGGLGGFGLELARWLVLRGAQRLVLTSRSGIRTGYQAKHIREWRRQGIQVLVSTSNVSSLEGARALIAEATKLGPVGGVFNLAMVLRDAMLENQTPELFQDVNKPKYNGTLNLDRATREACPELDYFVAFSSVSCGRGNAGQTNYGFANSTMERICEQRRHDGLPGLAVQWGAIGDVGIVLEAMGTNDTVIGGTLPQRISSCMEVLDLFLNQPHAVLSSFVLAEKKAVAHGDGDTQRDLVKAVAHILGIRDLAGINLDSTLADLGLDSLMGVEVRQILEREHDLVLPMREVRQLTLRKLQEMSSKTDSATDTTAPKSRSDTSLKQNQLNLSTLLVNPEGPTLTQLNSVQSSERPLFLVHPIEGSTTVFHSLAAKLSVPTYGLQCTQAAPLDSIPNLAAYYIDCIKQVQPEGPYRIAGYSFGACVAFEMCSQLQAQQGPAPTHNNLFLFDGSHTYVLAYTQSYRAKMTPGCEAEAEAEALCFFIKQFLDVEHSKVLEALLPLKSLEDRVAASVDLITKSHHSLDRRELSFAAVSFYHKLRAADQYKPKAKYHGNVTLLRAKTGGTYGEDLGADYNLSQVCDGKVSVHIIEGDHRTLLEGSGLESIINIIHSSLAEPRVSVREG
# UniProt P70168: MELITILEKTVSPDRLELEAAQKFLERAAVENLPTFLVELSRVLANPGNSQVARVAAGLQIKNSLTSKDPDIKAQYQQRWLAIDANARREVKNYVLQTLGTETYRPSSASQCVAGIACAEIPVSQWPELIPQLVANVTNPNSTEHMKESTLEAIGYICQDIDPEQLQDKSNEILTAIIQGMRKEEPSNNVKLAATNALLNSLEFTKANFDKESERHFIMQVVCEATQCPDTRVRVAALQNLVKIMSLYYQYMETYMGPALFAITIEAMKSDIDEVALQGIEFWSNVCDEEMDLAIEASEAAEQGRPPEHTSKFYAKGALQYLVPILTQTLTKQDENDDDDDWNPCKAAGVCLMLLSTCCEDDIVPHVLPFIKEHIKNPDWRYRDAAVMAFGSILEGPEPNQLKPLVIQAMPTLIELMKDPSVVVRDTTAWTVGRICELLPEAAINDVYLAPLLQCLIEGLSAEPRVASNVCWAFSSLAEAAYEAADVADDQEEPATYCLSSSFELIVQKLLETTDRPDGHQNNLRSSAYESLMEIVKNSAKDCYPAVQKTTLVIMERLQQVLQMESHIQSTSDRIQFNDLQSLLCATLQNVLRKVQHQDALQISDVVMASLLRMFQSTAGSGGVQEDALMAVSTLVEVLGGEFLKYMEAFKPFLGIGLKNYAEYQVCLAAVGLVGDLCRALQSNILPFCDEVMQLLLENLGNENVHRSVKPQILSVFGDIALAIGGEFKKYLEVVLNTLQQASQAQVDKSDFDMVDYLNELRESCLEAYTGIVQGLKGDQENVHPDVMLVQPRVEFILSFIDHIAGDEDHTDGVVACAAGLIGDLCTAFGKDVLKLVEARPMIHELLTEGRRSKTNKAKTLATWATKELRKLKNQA
# No constants are given. Whether binding was seen depends on the method and setting. Binding seen in cells or lysates may run through a third protein. These calls come from enrichment with a bait or labelling near it, and not all partners need be listed.
# B1: elongator protein complex 1 (ELP1) (protein, UniProt Q7TT37 1-1333)
# chain: MRNLKLHRTLEFRDIQAPGKPQCFCLRAEQGTVLIGSERGLTEVDPVRREVKTEISLVAEGFLPEDGSGCIVGIQDLLDQESVCVATASGDVIVCNLSTQQLECVGSVASGISVMSWSPDQELLLLATAQQTLIMMTKDFEVIAEEQIHQDDFGEGKFVTVGWGSKQTQFHGSEGRPTAFPVQLPENALPWDDRRPHITWRGDGQYFAVSVVCRQTEARKIRVWNREFALQSTSESVPGLGPALAWKPSGSLIASTQDKPNQQDVVFFEKNGLLHGHFTLPFLKDEVKVNDLLWNADSSVLAIWLEDLPKEDSSTLKSYVQLWTVGNYHWYLKQSLPFSTTGKNQIVSLLWDPVTPCRLHVLCTGWRYLCCDWHWTTDRSSGNSANDLANVAVIDGNRVLVTVFRQTVVPPPMCTYRLLIPHPVNQVIFSAHLGNDLAVLDASNQISVYKCGDKPNMDSTVKLGAVGGNGFKVPLTTPHLEKRYSIQFGNNEEEEEEEVNALQLSFLTWVEDDTFLAISYSHSSSQSIIHHLTVTHSEVDEEQGQLDVSSSVTVDGVVIGLCCCSKTKSLAVQLADGQVLKYLWESPSLAVEPWKNSEGIPVRFVHPCTQMEVATIGGEECVLGLTDRCRFFINDTEVASNITSFAVCDDFLLVTTHSHTCQVFSLSGASLKMLQAALSGSHEASGEILRKVERGSRIVTVVPQDTKLILQMPRGNLEVVHHRALVLAQIRKWLDKLMFKEAFECMRKLRINLNLIHDHNPKVFLENVETFVKQIDSVNHINLFFTELREEDVTKTMYPPPITKSVQVSTHPDGKKLDLICDAMRAAMEAINPRKFCLSILTSHVKKTTPELEIVLQKVQELQGNLPFDPESVSVEEALKYLLLLVDVNELFNHSLGTYDFNLVLMVAEKSQKDPKEYLPFLNTLKKMETNYQRFTIDKYLKRYEKALGHLSKCGPEYFTECLNLIKDKNLYKEALKLYRPDSPQYQAVSMAYGEHLMQEHLYEPAGLVFARCGAQEKALEAFLACGSWQQALCVAAQLQMSKDKVAGLARTLAGKLVEQRKHSEAATVLEQYAQDYEEAVLLLLEGSAWEEALRLVYKYDRVDIIETSVKPSILEAQKNYMDFLDSETATFIRHKNRLQVVRALRRQAPQVHVDHEVAHGPESDLFSETSSIMSGSEMSGRYSHSNSRISARSSKNRRKAERKKHSLKEGSPLEGLALLEALSEVVQSVEKLKDEVRAILKVLFLFEFEEQAKELQRAFESTLQLMERAVPEIWTPAGQQSSTTPVLGPSSTANSITASYQQQKTCVPALDAGVYMPPKMDPRSQWKLSLLE
# B2: WDR1 (protein, UniProt O88342 1-606)
# chain: MPYEIKKVFASLPQVERGVSKILGGDPKGDHFLYTNGKCVILRNIDNPAIADIYTEHAHQVVVAKYAPSGFYIASGDISGKLRIWDTTQKEHLLKYEYQPFAGKIKDIAWTEDSKRIAVVGEGREKFGAVFLWDTGSSVGEITGHNKVINSVDIKQTRPYRLATGSDDNCAAFFEGPPFKFKFTIGDHSRFVNCVRFSPDGNRFATASADGQIFIYDGKTGEKVCALGESKAHDGGIYAISWSPDSTHLLSASGDKTSKIWDVNVNSVVSTFPMGSNVLDQQLGCLWQKDHLLSISLSGYINYLDKNNPSKPLRVIKGHSKSIQCLTVHRNGGKSYIYSGSHDGHINYWDSETGENDSFSGKGHTNQVSRMTVNESEQLVSCSMDDTVRYTNLTLRDYSGQGVVKLDVQPKCVAVGPGGYTVVVCIGQIVLLKDQKKCFSIDNPGYEPEVVAVHPGGDTVAVGGTDGNVRVYSILASTLKDEGKLLEAKGPVTDVAYSHDGAFLAVCDASKVVTVFSVADGYSENNVFYGHHAKIVCLAWSPDNEHFASGGMDMMVYVWTLSDPETKVKIQDAHRLHHVSSLAWLDEHTLVTTSHDASVKEWTITY
# Target: biotin-tagged PAD2 (peptidylarginine deiminase 2) (UniProt Q08642)
# Assay: affinity purification with mass spectrometry; SILAC: BirA control cells (light) and bioPadi2 cells (heavy), proliferating and 2-days differentiated Oli-neu; cells fixed 8 min in 1% formaldehyde, lysed and sonicated; biotin-tagged PAD2 pulled down on streptavidin beads overnight at 4°C; beads of both conditions combined, on-bead trypsin digest, LC-MS/MS; interactors: log2(H/L) above 1 in both conditions
row,Molecule,binding
1,FASN (from UniProt P19096 1-2504),binds
2,KPNB1 (from UniProt P70168 1-876),binds
3,B1,binds
4,B2,binds
